# Over roughly 1,600 compounds, “plate-normalized OD600 growth (mean of duplicates)” has its median near 0.31; the lowest 2% begin near 0.23. This is one part of the list.
# Test system: Escherichia coli BW25113
# Assay: plate-normalized OD600 growth (mean of duplicates) (OD600 (normalized)); higher = more growth (less inhibition)
# Details: 10 µM
# Description: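 E. coli BW25113 in LB (100 µl, 96-well, no shaking) was exposed to 10 µM of each compound (here the ChemBridge subset of a ~30,000-member library) and grown at 37°C for 24 h or 15°C for 48 h, in duplicate. Growth was read as OD600 and the duplicate ODs were normalized across screening plates to correct plate-to-plate variation.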
Compound,"plate-normalized OD600 growth (temperature: 15°C, 48 h)","plate-normalized OD600 growth (temperature: 37°C, 24 h)"
CC(C)(C)c1ccc(-c2csc(N)n2)cc1,0.246,0.622
CCOc1ccc(N2C(=O)CC(NCC#N)C2=O)cc1 (stereo not given),0.254,0.622
CC1(C)CC1C(=O)NCc1ccccc1 (stereo not given),0.248,0.618
Cc1ccc(NC(=O)[C@@H]2C3C=CC(C3)[C@@H]2C(=O)O)c(C)c1 (stereo not given in full),0.247,0.648
Clc1cccc(Cl)c1-c1nnc2ccc3ccccc3n12,0.239,0.598
CN1CCCN(Cc2ccc([N+](=O)[O-])o2)CC1,0.258,0.607
CCN(CC)/C(=N/O)c1cccc([N+](=O)[O-])c1,0.263,0.67
O=C(CCCOc1ccc(Cl)cc1Cl)N1CCCC1,0.255,0.614
COc1ccccc1-n1c(SCC(=O)Nc2ccc(Cl)cc2)nc(O)cc1=O,0.306,0.644
O=C(CCN1CCCCC1)c1ccc(Cl)cc1,0.237,0.631
Cc1ccc(C(=O)O)cc1S(=O)(=O)N1CCCCC1,0.232,0.633
CC1=C(C#N)C(c2ccc(N(C)C)cc2)C2=C(CCCC2=O)N1 (stereo not given),0.248,0.638
Cc1cc(C)n(C(=O)c2ccc(Cl)cc2)n1,0.256,0.636
Nc1nnc(-c2ccccc2I)s1,0.252,0.603
Cc1nc(SCc2ccccc2)n[nH]1,0.267,0.635
O=C(NCCc1ccccc1)Nc1cccc(Cl)c1,0.258,0.583
OCCN(Cc1ccccc1)CC1CC=CCC1 (stereo not given),0.25,0.61
Nc1nc(/C=C/c2ccccc2)c([N+](=O)[O-])c(=O)[nH]1,0.272,0.646
O=C(NCC1CCCO1)c1ccc2c(c1)OCO2 (stereo not given),0.243,0.615
COc1ccc(NC(=O)c2ccc(I)cc2)cc1OC,0.239,0.59
O=C(NCCc1nc2ccccc2[nH]1)Nc1ccccc1,0.239,0.603
O=C(NCC1OCCc2ccccc21)c1ccccc1 (stereo not given),0.26,0.63
Cc1cc(CO)c(O)c(CCc2ccccc2)n1,0.259,0.629
NS(=O)(=O)c1ccc(-c2ccc(C=O)o2)cc1,0.227,0.612
COc1ccccc1S(=O)(=O)c1c(C)cc(C)cc1C,0.261,0.615
Fc1ccc(CN2CCN(Cc3cccnc3)CC2)cc1,0.26,0.625
COc1ccc(NCc2ccc(C)s2)cc1OC,0.244,0.604
c1ccc(-c2[nH]nc(-c3cccnc3)c2-c2nc3ccccc3[nH]2)cc1,0.247,0.598

# Nothing new here: entries from further up.
Compound,"plate-normalized OD600 growth (temperature: 15°C, 48 h)","plate-normalized OD600 growth (temperature: 37°C, 24 h)"
O=C(NCCc1nc2ccccc2[nH]1)Nc1ccccc1,0.239,0.603
O=C(NCC1OCCc2ccccc21)c1ccccc1 (stereo not given),0.26,0.63
Cc1cc(CO)c(O)c(CCc2ccccc2)n1,0.259,0.629
NS(=O)(=O)c1ccc(-c2ccc(C=O)o2)cc1,0.227,0.612

# Remaining list, next part:

Compound,"plate-normalized OD600 growth (temperature: 15°C, 48 h)","plate-normalized OD600 growth (temperature: 37°C, 24 h)"
CSc1nc(N)c2c3c(sc2n1)CCCCC3,0.249,0.617
CC(C)Cc1ccc(C(C)C(=O)NC(C)C)cc1 (stereo not given),0.233,0.62
Cc1cc(C)nc(SCC(O)COc2ccc(C(C)(C)C)cc2)n1 (stereo not given),0.232,0.635
O=C(Nn1cnnc1)c1ccccc1Cl,0.249,0.609
c1ccc2[nH]c(CN3CCCCC3)nc2c1,0.265,0.621
O=C(c1ccco1)N1CCN(Cc2cccc([N+](=O)[O-])c2)CC1,0.239,0.638
Cc1nc(N)sc1-c1csc(Nc2ccc(O)cc2)n1,0.239,0.621
COc1cc2c(cc1OC)C(c1cc(OC)c(OC)c(OC)c1)N(C)CC2 (stereo not given),0.244,0.624
Cc1cc(-c2ccc(C)o2)c(C#N)c(SCC(N)=O)n1,0.239,0.607
CSc1nnc(Nc2ccccc2)n1-c1ccccc1,0.254,0.607
C[C@H](NC(=O)Cc1ccccc1)c1ccccc1,0.304,0.633
CC(=O)c1ccc(N2CCN(Cc3ccccn3)CC2)cc1,0.232,0.604
COc1ccc(-c2cn3c4ccccc4n(CCN4CCOCC4)c3n2)cc1,0.244,0.62
COc1cc(CN2CCSCC2)c([N+](=O)[O-])cc1OC,0.23,0.6
CC(C)CN(CC(C)C)C(=O)CCN1C(=O)c2ccccc2C1=O,0.248,0.638
Brc1ccccc1OCCN1CCCC1,0.254,0.628
CCOc1ccccc1N1CCN(C(=O)c2ccccc2C)CC1,0.287,0.646
CCOc1ccc(C(C)(CC(=O)O)C(=O)O)cc1 (stereo not given),0.247,0.629
COc1ccccc1NC(=O)C1=C(C)NC(SC)=C(C#N)C1c1ccccc1Cl (stereo not given),0.248,0.613
CC(/C=C/c1ccc(N(C)C)cc1)=C\C(=O)O,0.252,0.602
N#Cc1ccc(Oc2cccc(C(=O)O)c2)cc1,0.281,0.641
Fc1ccccc1OCCCCN1CCCCC1,0.214,0.61
CC(=O)N1c2ccccc2C(C)CC12CCCCC2 (stereo not given),0.24,0.619
O=C(/C=C/c1ccc(-c2cc(Cl)ccc2Cl)o1)c1ccco1,0.25,0.612
COc1cccc(CNc2ccc(F)cc2C)c1,0.267,0.622
CC(C)(C)C(=O)N1CCCC1C(=O)O (stereo not given),0.244,0.611
CCN(CC)CCSc1nc2ccccc2[nH]1,0.232,0.595

# — the supplement of paper PMC4371806
